Reference: article doi:10.1101/2022.07.05.498918
Where two headings read alike, the source gives them in different places. These are yes or no findings as the source states them, for the method shown. In cells and extracts the contact can be indirect. Some entries that bind do so weakly or less than the wild type. For part of these data: Sequences can lack the tags named with a protein. One block for each molecule: values may come before it.

By UniProt entry, the sequences of proteins in these tests, tags left out.
UniProt P10415: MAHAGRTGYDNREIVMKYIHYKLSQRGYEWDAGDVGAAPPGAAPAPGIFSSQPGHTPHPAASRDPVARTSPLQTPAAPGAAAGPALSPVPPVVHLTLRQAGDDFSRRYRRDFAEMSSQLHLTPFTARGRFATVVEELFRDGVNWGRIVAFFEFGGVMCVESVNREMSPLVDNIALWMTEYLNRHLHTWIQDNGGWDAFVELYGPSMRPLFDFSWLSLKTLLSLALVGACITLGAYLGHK
UniProt Q6ZNE5: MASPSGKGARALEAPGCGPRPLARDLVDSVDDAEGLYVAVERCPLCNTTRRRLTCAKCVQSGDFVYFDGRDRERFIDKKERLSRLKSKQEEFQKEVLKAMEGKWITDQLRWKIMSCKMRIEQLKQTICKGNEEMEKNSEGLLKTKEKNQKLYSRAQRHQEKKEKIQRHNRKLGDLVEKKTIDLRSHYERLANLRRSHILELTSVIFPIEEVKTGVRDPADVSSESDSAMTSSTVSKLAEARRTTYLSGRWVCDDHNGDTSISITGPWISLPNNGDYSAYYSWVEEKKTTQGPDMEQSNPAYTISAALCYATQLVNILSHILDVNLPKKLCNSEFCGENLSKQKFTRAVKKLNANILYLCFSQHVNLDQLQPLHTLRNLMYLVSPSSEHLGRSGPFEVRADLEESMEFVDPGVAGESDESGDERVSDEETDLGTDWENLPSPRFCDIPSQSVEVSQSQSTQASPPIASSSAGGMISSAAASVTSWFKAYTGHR
UniProt Q9C0C7: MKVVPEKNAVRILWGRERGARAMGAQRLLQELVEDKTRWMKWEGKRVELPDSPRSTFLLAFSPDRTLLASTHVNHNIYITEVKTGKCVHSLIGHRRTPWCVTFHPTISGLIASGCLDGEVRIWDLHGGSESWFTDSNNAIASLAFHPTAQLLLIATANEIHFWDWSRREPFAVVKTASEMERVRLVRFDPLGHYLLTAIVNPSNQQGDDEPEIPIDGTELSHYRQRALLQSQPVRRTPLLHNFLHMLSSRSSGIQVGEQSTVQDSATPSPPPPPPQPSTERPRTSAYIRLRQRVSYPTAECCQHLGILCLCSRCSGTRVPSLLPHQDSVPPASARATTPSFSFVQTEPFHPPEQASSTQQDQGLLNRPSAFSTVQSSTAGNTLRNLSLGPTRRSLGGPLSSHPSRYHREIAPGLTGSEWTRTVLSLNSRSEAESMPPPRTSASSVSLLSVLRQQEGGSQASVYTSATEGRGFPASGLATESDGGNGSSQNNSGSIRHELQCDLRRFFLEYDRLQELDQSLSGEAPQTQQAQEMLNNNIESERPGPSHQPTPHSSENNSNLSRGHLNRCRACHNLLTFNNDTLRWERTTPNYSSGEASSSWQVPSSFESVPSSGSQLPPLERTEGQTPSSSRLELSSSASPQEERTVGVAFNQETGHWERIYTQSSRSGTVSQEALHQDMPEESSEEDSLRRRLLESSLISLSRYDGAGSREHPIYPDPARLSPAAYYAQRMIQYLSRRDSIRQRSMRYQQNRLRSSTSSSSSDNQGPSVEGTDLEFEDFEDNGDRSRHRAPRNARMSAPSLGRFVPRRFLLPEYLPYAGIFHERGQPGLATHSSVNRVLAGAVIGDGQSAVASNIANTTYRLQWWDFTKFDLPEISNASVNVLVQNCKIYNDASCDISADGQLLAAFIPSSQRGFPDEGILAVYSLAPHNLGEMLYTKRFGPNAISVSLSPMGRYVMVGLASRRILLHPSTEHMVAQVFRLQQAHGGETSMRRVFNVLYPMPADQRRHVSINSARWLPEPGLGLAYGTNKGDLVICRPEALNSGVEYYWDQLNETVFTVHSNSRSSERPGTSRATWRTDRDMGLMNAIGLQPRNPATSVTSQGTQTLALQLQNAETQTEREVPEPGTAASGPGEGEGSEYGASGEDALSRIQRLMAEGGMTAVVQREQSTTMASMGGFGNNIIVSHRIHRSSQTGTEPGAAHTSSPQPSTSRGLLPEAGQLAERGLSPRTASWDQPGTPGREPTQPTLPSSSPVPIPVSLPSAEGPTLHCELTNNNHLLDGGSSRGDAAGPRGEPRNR
UniProt Q14457: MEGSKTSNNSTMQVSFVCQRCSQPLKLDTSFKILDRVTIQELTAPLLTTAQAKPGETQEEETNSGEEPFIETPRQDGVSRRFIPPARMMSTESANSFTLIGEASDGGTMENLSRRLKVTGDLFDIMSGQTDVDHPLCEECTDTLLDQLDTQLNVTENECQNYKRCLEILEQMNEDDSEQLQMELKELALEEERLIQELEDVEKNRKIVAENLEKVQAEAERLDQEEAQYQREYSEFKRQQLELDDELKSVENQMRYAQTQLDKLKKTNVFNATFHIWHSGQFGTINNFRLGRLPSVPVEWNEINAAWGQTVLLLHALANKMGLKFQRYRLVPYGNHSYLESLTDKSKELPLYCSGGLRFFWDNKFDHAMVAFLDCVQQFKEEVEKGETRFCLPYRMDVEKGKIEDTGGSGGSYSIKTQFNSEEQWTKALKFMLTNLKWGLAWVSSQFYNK
UniProt Q86WV6: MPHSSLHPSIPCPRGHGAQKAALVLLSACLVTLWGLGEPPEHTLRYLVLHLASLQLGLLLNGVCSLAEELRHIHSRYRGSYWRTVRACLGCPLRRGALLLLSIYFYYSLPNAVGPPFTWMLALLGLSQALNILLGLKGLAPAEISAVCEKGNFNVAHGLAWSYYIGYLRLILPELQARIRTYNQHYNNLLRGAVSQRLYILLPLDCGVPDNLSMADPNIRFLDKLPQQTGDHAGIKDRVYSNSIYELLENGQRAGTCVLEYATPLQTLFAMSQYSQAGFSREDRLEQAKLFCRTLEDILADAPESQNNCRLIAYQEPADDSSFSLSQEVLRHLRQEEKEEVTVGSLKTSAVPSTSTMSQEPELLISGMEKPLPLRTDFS
UniProt Q8N884: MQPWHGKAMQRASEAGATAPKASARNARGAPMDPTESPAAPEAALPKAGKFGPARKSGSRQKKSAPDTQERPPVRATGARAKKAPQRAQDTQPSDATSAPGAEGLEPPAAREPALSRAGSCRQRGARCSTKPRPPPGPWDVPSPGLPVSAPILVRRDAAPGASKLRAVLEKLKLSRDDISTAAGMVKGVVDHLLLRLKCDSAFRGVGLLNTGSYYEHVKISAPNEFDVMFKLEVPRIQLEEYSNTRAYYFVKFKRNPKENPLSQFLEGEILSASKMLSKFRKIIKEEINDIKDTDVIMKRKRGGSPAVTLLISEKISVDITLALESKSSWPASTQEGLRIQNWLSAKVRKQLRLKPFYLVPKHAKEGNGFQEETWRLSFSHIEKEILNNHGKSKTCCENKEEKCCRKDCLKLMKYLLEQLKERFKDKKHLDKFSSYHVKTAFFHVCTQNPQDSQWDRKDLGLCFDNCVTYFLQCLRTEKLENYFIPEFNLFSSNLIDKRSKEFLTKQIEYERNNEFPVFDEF

Key:
Assay in all cases: co-IP
Flag-Bcl2 [1] = molecular target: Flag-Bcl2 (UniProt P10415)
Flag-ATG14L = Flag-ATG14L (UniProt Q6ZNE5)
Flag-Bcl2 [2] = molecular target: Flag-Bcl2 (UniProt P10415); remark: listed apart in the source
Flag-Ambra1 = Flag-Ambra1 (UniProt Q9C0C7)
Flag-Beclin-1 = Flag-Beclin-1 (UniProt Q14457)
Flag-STING = Flag-STING (UniProt Q86WV6)

Molecule: Myc-cGAS (from UniProt Q8N884 1-522)
binding (Flag-Bcl2 [1]): binds
binding (Flag-Bcl2 [2]): binds

B1: HA-USP19 (enzyme, UniProt O94966 1-1318)
chain: MSGGASATGPRRGPPGLEDTTSKKKQKDRANQESKDGDPRKETGSRYVAQAGLEPLASGDPSASASHAAGITGSRHRTRLFFPSSSGSASTPQEEQTKEGACEDPHDLLATPTPELLLDWRQSAEEVIVKLRVGVGPLQLEDVDAAFTDTDCVVRFAGGQQWGGVFYAEIKSSCAKVQTRKGSLLHLTLPKKVPMLTWPSLLVEADEQLCIPPLNSQTCLLGSEENLAPLAGEKAVPPGNDPVSPAMVRSRNPGKDDCAKEEMAVAADAATLVDEPESMVNLAFVKNDSYEKGPDSVVVHVYVKEICRDTSRVLFREQDFTLIFQTRDGNFLRLHPGCGPHTTFRWQVKLRNLIEPEQCTFCFTASRIDICLRKRQSQRWGGLEAPAARVGGAKVAVPTGPTPLDSTPPGGAPHPLTGQEEARAVEKDKSKARSEDTGLDSVATRTPMEHVTPKPETHLASPKPTCMVPPMPHSPVSGDSVEEEEEEEKKVCLPGFTGLVNLGNTCFMNSVIQSLSNTRELRDFFHDRSFEAEINYNNPLGTGGRLAIGFAVLLRALWKGTHHAFQPSKLKAIVASKASQFTGYAQHDAQEFMAFLLDGLHEDLNRIQNKPYTETVDSDGRPDEVVAEEAWQRHKMRNDSFIVDLFQGQYKSKLVCPVCAKVSITFDPFLYLPVPLPQKQKVLPVFYFAREPHSKPIKFLVSVSKENSTASEVLDSLSQSVHVKPENLRLAEVIKNRFHRVFLPSHSLDTVSPSDTLLCFELLSSELAKERVVVLEVQQRPQVPSVPISKCAACQRKQQSEDEKLKRCTRCYRVGYCNQLCQKTHWPDHKGLCRPENIGYPFLVSVPASRLTYARLAQLLEGYARYSVSVFQPPFQPGRMALESQSPGCTTLLSTGSLEAGDSERDPIQPPELQLVTPMAEGDTGLPRVWAAPDRGPVPSTSGISSEMLASGPIEVGSLPAGERVSRPEAAVPGYQHPSEAMNAHTPQFFIYKIDSSNREQRLEDKGDTPLELGDDCSLALVWRNNERLQEFVLVASKELECAEDPGSAGEAARAGHFTLDQCLNLFTRPEVLAPEEAWYCPQCKQHREASKQLLLWRLPNVLIVQLKRFSFRSFIWRDKINDLVEFPVRNLDLSKFCIGQKEEQLPSYDLYAVINHYGGMIGGHYTACARLPNDRSSQRSDVGWRLFDDSTVTTVDESQVVTRYAYVLFYRRRNSPVERPPRAGHSEHHPDLGPAAEAAASQASRIWQELEAEEEPVPEGSGPLGPWGPQDWVGPLPRGPTTPDEGCLRYFVLGTVAALVALVLNVFYPLVSQSRWR
binding (Flag-STING): binds

Further lines, results first:

binding (Flag-Bcl2 [1]): binds
binding (Flag-ATG14L): binds
binding (Flag-Bcl2 [2]): binds
binding (Flag-Ambra1): binds
binding (Flag-Beclin-1): binds
Molecule: HA-STING (from UniProt Q86WV6 1-379)

binding (Flag-STING): binds
B2: HA-ATG9a (protein, UniProt Q7Z3C6 1-839)
chain: MAQFDTEYQRLEASYSDSPPGEEDLLVHVAEGSKSPWHHIENLDLFFSRVYNLHQKNGFTCMLIGEIFELMQFLFVVAFTTFLVSCVDYDILFANKMVNHSLHPTEPVKVTLPDAFLPAQVCSARIQENGSLITILVIAGVFWIHRLIKFIYNICCYWEIHSFYLHALRIPMSALPYCTWQEVQARIVQTQKEHQICIHKRELTELDIYHRILRFQNYMVALVNKSLLPLRFRLPGLGEAVFFTRGLKYNFELILFWGPGSLFLNEWSLKAEYKRGGQRLELAQRLSNRILWIGIANFLLCPLILIWQILYAFFSYAEVLKREPGALGARCWSLYGRCYLRHFNELEHELQSRLNRGYKPASKYMNCFLSPLLTLLAKNGAFFAGSILAVLIALTIYDEDVLAVEHVLTTVTLLGVTVTVCRSFIPDQHMVFCPEQLLRVILAHIHYMPDHWQGNAHRSQTRDEFAQLFQYKAVFILEELLSPIVTPLILIFCLRPRALEIIDFFRNFTVEVVGVGDTCSFAQMDVRQHGHPQWLSAGQTEASVYQQAEDGKTELSLMHFAITNPGWQPPRESTAFLGFLKEQVQRDGAAASLAQGGLLPENALFTSIQSLQSESEPLSLIANVVAGSSCRGPPLPRDLQGSRHRAEVASALRSFSPLQPGQAPTGRAHSTMTGSGVDARTASSGSSVWEGQLQSLVLSEYASTEMSLHALYMHQLHKQQAQAEPERHVWHRRESDESGESAPDEGGEGARAPQSIPRSASYPCAAPRPGAPETTALHGGFQRRYGGITDPGTVPRVPSHFSRLPLGGWAEDGQSASRHPEPVPEEGSEDELPPQVHKV
